Results taken from the supplement of paper PMC10849652.
The other results are listed elsewhere or left out.

The chains behind the UniProt entries cited, without tags or fusion partners. Where a name states a change or a piece, a line headed by the entry shows the natural chain unless it says otherwise.
UniProt P47813, whole entry, looked up: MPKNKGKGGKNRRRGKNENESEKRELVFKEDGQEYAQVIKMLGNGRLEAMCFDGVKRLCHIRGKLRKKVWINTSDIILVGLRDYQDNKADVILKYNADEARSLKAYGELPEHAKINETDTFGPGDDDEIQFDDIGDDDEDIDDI
UniProt Q96EB1: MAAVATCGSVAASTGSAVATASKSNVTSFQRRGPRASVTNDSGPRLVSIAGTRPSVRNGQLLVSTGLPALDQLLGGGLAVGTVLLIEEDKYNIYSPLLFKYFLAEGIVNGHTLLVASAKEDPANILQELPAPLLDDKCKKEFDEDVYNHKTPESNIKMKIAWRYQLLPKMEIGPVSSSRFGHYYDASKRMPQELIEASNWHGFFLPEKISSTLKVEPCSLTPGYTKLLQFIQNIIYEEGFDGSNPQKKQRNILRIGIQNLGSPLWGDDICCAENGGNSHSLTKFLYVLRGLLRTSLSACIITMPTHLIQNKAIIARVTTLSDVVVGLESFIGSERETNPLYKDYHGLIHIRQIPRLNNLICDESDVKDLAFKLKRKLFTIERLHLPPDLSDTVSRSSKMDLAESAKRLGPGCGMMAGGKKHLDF
UniProt O75356: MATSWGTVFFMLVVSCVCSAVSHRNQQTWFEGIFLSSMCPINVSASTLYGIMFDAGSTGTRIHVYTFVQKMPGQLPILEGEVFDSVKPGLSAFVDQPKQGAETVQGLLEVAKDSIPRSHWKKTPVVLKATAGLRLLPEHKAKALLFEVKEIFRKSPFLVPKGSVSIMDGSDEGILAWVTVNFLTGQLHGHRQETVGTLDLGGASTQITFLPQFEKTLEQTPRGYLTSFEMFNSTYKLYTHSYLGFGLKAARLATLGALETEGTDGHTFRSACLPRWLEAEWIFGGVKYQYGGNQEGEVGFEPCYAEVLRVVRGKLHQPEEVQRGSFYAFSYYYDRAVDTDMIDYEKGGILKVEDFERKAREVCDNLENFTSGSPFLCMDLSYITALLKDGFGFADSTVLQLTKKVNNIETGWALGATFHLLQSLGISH
UniProt Q96KQ7: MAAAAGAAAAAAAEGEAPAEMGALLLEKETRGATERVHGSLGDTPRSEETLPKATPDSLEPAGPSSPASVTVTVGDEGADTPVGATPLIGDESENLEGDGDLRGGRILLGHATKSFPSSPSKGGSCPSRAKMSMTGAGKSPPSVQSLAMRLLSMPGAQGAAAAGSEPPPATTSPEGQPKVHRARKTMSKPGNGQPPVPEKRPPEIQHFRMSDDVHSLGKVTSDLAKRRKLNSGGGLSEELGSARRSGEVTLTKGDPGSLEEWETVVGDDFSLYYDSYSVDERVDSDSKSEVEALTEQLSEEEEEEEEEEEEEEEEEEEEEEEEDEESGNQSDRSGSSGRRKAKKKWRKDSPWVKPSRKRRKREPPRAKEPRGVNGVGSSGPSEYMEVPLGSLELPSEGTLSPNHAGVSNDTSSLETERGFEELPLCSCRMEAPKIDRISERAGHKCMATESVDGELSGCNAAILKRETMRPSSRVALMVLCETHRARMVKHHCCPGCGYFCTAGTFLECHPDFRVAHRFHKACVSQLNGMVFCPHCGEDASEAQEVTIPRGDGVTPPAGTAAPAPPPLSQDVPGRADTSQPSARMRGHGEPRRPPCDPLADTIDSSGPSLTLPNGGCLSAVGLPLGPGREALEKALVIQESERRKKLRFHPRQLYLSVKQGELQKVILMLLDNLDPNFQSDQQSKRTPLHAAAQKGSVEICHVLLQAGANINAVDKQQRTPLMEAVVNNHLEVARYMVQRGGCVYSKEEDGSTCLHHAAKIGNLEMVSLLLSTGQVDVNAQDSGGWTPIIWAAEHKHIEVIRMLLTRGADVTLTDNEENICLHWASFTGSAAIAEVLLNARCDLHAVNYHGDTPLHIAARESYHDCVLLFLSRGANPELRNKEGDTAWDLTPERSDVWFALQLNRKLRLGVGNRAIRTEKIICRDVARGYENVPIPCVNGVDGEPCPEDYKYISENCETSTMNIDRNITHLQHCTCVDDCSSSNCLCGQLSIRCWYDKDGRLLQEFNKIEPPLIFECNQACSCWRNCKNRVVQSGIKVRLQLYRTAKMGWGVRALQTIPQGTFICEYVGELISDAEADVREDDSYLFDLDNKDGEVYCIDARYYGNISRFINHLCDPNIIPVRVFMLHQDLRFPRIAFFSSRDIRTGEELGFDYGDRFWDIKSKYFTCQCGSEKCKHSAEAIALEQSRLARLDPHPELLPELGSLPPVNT
UniProt P98172: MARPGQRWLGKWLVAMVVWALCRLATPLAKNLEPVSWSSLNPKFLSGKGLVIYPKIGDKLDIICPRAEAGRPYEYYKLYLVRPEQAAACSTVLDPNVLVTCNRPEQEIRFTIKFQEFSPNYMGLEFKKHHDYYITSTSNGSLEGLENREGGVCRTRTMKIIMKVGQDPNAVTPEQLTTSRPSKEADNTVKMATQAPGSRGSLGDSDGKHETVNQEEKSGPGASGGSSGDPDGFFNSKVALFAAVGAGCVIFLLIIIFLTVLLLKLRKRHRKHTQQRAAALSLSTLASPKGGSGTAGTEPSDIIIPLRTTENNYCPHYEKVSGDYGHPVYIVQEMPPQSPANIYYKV
UniProt P29692: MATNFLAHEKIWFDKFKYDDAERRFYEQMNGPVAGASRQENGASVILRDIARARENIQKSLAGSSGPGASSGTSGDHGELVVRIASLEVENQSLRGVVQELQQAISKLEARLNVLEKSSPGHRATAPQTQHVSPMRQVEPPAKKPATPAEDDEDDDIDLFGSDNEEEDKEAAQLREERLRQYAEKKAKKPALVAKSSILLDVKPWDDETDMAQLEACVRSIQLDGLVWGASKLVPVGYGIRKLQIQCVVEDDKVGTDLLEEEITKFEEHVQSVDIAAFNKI
UniProt Q9UI10, whole entry, looked up: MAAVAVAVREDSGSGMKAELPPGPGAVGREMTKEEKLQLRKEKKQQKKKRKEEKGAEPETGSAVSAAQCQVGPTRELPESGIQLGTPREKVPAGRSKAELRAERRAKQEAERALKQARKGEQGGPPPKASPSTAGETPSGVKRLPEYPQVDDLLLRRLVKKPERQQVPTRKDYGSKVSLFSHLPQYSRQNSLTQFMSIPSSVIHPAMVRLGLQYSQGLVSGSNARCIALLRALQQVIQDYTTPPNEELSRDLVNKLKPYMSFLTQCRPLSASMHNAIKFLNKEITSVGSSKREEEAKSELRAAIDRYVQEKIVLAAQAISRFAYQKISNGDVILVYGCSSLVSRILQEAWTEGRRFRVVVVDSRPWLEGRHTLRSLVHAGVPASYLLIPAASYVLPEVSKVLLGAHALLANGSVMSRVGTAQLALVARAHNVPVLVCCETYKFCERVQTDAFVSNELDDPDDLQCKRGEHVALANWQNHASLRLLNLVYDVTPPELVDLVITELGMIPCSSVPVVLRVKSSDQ
UniProt O75071: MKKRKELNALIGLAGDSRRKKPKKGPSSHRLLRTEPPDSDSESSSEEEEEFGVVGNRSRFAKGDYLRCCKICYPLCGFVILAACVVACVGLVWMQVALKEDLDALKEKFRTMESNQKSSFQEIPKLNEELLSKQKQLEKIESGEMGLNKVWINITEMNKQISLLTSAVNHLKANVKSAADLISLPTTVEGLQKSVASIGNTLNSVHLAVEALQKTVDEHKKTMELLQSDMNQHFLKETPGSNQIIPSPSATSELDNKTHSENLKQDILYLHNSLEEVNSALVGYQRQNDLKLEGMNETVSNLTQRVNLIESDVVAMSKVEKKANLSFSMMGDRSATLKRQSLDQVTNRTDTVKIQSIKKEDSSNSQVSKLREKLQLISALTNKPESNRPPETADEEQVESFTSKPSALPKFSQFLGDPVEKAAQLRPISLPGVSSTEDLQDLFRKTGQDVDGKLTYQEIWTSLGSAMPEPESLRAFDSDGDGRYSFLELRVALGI

Experiments:
Assay in all cases: log2 fold change, soluble protein after heating vs DMSO (PISA); higher = thermal stabilisation; K562 cells, 10 uM, 30 min; active = over 0.2 and 3.5 SD of the protein, either way, in both replicates (recomputed)
[1] = compound: CC1=C(C=C(C=C1)NC(=O)C2=CC(=CC=C2)C(C)(C)C#N)NC3=CC4=C(C=C3)N=CN(C4=O)C
How it was run: (§1)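 Thermal stability values are relative to control samples and come from duplicates. They are expressed as log2 fold changes. For measurement, K562 cells (2×10^6 cells/mL) received 10 μM compound for 30 min, and aliquots were heated for 3 min over 48°C-58°C, pooled, and extracted at 4°C in PBS with 0.5% NP-40. Soluble protein, the supernatant after 21,000xg for 90 min, was quantified by TMTpro 16plex LC-MS/MS with equalised channel sums.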

[2] = compound: CC1=C(C=C(C=C1)NC(=O)C2=CC(=CC=C2)N(C)C)NC(=O)C3=CC=C(C=C3)O
How it was run: as §1

[3] = compound: CC1=CC=C(C=C1)SC2=C3C=C(SC3=CN=C2)C(=O)N
How it was run: as §1

[4] = compound: CC1=NC(=CC=C1)C2=C(N=C(N2)C(C)(C)C)C3=CC4=NC=CN=C4C=C3
How it was run: as §1

Nexturastat A = compound: CCCCN(Cc1ccc(C(=O)NO)cc1)C(=O)Nc1ccccc1 [Nexturastat A]
How it was run: as §1

vemurafenib = compound: CCCS(=O)(=O)Nc1ccc(F)c(C(=O)c2c[nH]c3ncc(-c4ccc(Cl)cc4)cc23)c1F [vemurafenib]
How it was run: as §1

[5] = compound: CCCS(=O)(=O)Nc1ccc(F)c(C(=O)c2c[nH]c3ncc(Cl)cc23)c1F
How it was run: as §1

[6] = compound: CCCc1cc(C)[nH]c(=O)c1CNC(=O)c1cc(-c2ccnc(N3CCN(C)CC3)c2)cc2c1cnn2C(C)C
How it was run: as §1

givinostat = compound: CCN(CC)Cc1ccc2cc(COC(=O)Nc3ccc(C(=O)NO)cc3)ccc2c1 [givinostat]
How it was run: as §1

barasertib = compound: CCN(CCCOc1ccc2c(Nc3cc(CC(=O)Nc4cccc(F)c4)[nH]n3)ncnc2c1)CCOP(=O)(O)O [barasertib]
How it was run: as §1

[7] = compound: CC[C@@H]1C(=O)N(C)c2cnc(Nc3ccc(C(=O)NC4CCN(C)CC4)cc3OC)nc2N1C1CCCC1
How it was run: as §1

volasertib = compound: CC[C@@H]1C(=O)N(C)c2cnc(Nc3ccc(C(=O)N[C@H]4CC[C@H](N5CCN(CC6CC6)CC5)CC4)cc3OC)nc2N1C(C)C [volasertib]
How it was run: as §1

[8] = compound: CC[C@H](C)N1C=C(C2=C(C=C(C=C21)C3=CN=C(C=C3)N4CCNCC4)C(=O)NCC5=C(C=C(NC5=O)C)C)C
How it was run: as §1

epoxomicin = compound: CC[C@H](C)[C@@H](C(=O)N[C@@H]([C@@H](C)O)C(=O)N[C@@H](CC(C)C)C(=O)[C@]1(CO1)C)NC(=O)[C@H]([C@@H](C)CC)N(C)C(=O)C [epoxomicin]
How it was run: as §1

[9] = compound: CCn1c(C(=O)N(C2CC2)C2CC2)cc2c3c(ncn3C)c(Nc3cc(C)n(C)n3)nc21
How it was run: as §1

[10] = compound: CCn1cc(-c2ccnc3[nH]c(-c4cccc(CN(C)C)c4)cc23)c(-c2ccc(NC(=O)N(C)C)cc2)n1
How it was run: as §1

[11] = compound: CN(C)CC(=O)Nc1ccc2[nH]c(=O)c3ccccc3c2c1
How it was run: as §1

rosiglitazone = compound: CN(CCOC1=CC=C(C=C1)C[C@H]2C(=O)NC(=O)S2)C3=CC=CC=N3 (racemic) [rosiglitazone]
How it was run: as §1

[12] = compound: CN1C2=C(C3=C1C(=O)N(N=C3)CC4=CC(=CC=C4)N)SC(=C2)S(=O)C
How it was run: as §1

[13] = compound: CN1CCC(CNc2ccc3ncc(-c4cccc(OC(F)(F)F)c4)n3n2)CC1
How it was run: as §1

| Target | log2 fold change [1] | log2 fold change [2] | log2 fold change [3] | log2 fold change [4] | log2 fold change (Nexturastat A) | log2 fold change (vemurafenib) | log2 fold change [5] | log2 fold change [6] | log2 fold change (givinostat) | log2 fold change (barasertib) | log2 fold change [7] | log2 fold change (volasertib) | log2 fold change [8] | log2 fold change (epoxomicin) | log2 fold change [9] | log2 fold change [10] | log2 fold change [11] | log2 fold change (rosiglitazone) | log2 fold change [12] | log2 fold change [13] |
| --- | --- | --- | --- | --- | --- | --- | --- | --- | --- | --- | --- | --- | --- | --- | --- | --- | --- | --- | --- | --- |
| EIF1AX (UniProt P47813) | inactive: 0.058 | inactive: -0.015 | inactive: -0.025 | inactive: 0.065 | inactive: -0.041 | inactive: 0.015 | inactive: 0.061 | inactive: -0.047 | inactive: 0.007 | inactive: 0.003 | inactive: 0.027 | inactive: 0.065 | inactive: 0.009 | inactive: 0.013 | inactive: 0.034 | inactive: -0.033 | inactive: -0.006 | inactive: -0.042 | inactive: -0.09 | inactive: 0.091 |
| ELP4 (UniProt Q96EB1) | inactive: -0.059 | inactive: 0.057 | inactive: 0.03 | inactive: -0.012 | inactive: 0.17 | inactive: -0.016 | inactive: -0.09 | inactive: -0.034 | inactive: -0.044 | inactive: 0.02 | inactive: 0.057 | inactive: 0.013 | inactive: -0.032 | inactive: 0.003 | inactive: -0.053 | inactive: -0.052 | inactive: -0.104 | inactive: 0.014 | inactive: 0.057 | inactive: 0.021 |
| ENTPD5 (UniProt O75356) | inactive: -0.04 | inactive: -0.049 | inactive: -0.035 | inactive: 0.043 | inactive: -0.023 | inactive: -0.026 | inactive: -0.018 | inactive: 0.049 | inactive: -0.014 | inactive: -0.039 | inactive: 0.035 | inactive: -0.013 | inactive: 0.017 | inactive: 0.003 | inactive: 0.04 | – | inactive: -0.069 | inactive: 0.053 | inactive: -0.011 | – |
| EHMT2 (UniProt Q96KQ7) | inactive: -0.016 | inactive: -0.047 | inactive: 0.018 | inactive: -0.006 | inactive: -0.091 | inactive: -0.063 | inactive: -0.064 | inactive: 0.084 | inactive: 0.007 | inactive: 0.038 | inactive: 0 | inactive: -0.06 | inactive: 0.016 | inactive: 0.05 | inactive: 0.041 | inactive: 0.079 | inactive: -0.028 | inactive: -0.006 | inactive: 0.029 | inactive: -0.092 |
| EFNB1 (UniProt P98172) | inactive: 0.109 | inactive: -0.02 | inactive: 0.027 | inactive: 0.009 | inactive: 0.058 | inactive: -0.011 | inactive: 0.011 | inactive: 0.089 | inactive: 0.006 | inactive: 0.014 | inactive: -0.036 | inactive: 0.051 | inactive: -0.144 | inactive: 0.012 | inactive: -0.084 | inactive: -0.053 | inactive: 0.02 | inactive: -0.045 | inactive: 0.428 | inactive: 0.153 |
| EEF1D isoform 2 (UniProt P29692) | inactive: 0.039 | inactive: -0.034 | inactive: -0.012 | inactive: -0.003 | inactive: 0.029 | inactive: -0.044 | inactive: 0.049 | inactive: -0.004 | inactive: 0.038 | inactive: 0.02 | inactive: -0.089 | active: -0.336 | inactive: -0.001 | inactive: 0.008 | – | inactive: 0.05 | inactive: -0.022 | – | inactive: 0.015 | inactive: -0.039 |
| EIF2B4 isoform 2 (UniProt Q9UI10) | inactive: 0.019 | inactive: 0.012 | inactive: -0.012 | inactive: -0.039 | inactive: 0.045 | inactive: 0.024 | inactive: 0.002 | inactive: 0.028 | inactive: 0.045 | inactive: -0.001 | inactive: 0.013 | inactive: -0.061 | inactive: 0.018 | inactive: -0.005 | inactive: -0.018 | inactive: 0.002 | inactive: 0.01 | inactive: 0.011 | inactive: -0.019 | inactive: 0.148 |
| EFCAB14 (UniProt O75071) | inactive: -0.034 | inactive: 0.061 | inactive: 0.022 | inactive: -0.011 | inactive: -0.032 | inactive: -0.049 | inactive: 0.012 | inactive: 0.023 | inactive: 0.054 | inactive: -0.01 | inactive: -0.033 | inactive: -0.089 | inactive: -0.078 | inactive: 0.068 | – | inactive: 0.06 | inactive: -0.018 | – | inactive: 0.028 | inactive: -0.178 |

In a second layout: results already given.
Target	log2 fold change [1]	log2 fold change [2]	log2 fold change [3]	log2 fold change [4]	log2 fold change (Nexturastat A)	log2 fold change (vemurafenib)	log2 fold change [5]	log2 fold change [6]	log2 fold change (givinostat)	log2 fold change (barasertib)	log2 fold change [7]	log2 fold change (volasertib)	log2 fold change [8]	log2 fold change (epoxomicin)	log2 fold change [9]	log2 fold change [10]	log2 fold change [11]	log2 fold change (rosiglitazone)	log2 fold change [12]	log2 fold change [13]
EIF1AX (UniProt P47813)	inactive: 0.058	inactive: -0.015	inactive: -0.025	inactive: 0.065	inactive: -0.041	inactive: 0.015	inactive: 0.061	inactive: -0.047	inactive: 0.007	inactive: 0.003	inactive: 0.027	inactive: 0.065	inactive: 0.009	inactive: 0.013	inactive: 0.034	inactive: -0.033	inactive: -0.006	inactive: -0.042	inactive: -0.09	inactive: 0.091
ELP4 (UniProt Q96EB1)	inactive: -0.059	inactive: 0.057	inactive: 0.03	inactive: -0.012	inactive: 0.17	inactive: -0.016	inactive: -0.09	inactive: -0.034	inactive: -0.044	inactive: 0.02	inactive: 0.057	inactive: 0.013	inactive: -0.032	inactive: 0.003	inactive: -0.053	inactive: -0.052	inactive: -0.104	inactive: 0.014	inactive: 0.057	inactive: 0.021
